The text below walks through data of patent US20220119509A1 (ARGENX, published 2022).

These are yes or no findings as the source states them, for the method shown. Some entries that bind do so weakly or less than the wild type.

In this experiment the target is T1, cynomolgus monkey C2 (cynomolgus monkey) (UniProt G8F3W0).
T1 sequence: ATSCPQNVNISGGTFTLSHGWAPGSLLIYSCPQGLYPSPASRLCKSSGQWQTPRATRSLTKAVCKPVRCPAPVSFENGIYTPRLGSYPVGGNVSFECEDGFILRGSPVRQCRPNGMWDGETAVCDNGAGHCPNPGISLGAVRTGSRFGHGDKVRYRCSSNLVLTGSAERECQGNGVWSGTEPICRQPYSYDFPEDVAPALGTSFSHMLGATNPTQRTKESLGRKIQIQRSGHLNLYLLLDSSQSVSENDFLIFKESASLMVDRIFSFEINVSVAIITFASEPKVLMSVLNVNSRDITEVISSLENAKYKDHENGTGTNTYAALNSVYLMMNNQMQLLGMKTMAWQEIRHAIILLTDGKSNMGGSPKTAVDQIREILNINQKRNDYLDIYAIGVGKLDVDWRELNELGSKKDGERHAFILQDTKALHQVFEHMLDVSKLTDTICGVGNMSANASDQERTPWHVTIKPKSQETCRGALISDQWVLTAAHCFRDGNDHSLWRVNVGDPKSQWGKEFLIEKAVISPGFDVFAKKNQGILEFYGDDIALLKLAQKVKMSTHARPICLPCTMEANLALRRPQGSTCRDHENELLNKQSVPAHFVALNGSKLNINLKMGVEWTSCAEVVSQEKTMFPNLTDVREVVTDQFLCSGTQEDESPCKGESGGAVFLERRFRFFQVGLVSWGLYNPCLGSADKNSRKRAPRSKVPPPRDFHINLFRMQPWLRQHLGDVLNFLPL
The experiment in a line: free-C2 sandwich ELISA on pre-dose cynomolgus serum: coat mAb32, detection with biotinylated anti-C2 VH4/VK3; excess BRO-2 competes with the detection antibody. (In general: ELISA stands for enzyme-linked immunosorbent assay.)

B1: BRO2 (antibody, V domains shown)
VH: EVQLVQSGAEVKKPGASVKVSCKASGYTFTDYNMDWVRQATGQGLEWIGDINPNYESTGYNQKFKGRATMTVNKSISTAYMELSSLRSEDTAVYYCAREDDHDAFAYWGQGTLVTVSS
VL: DNVLTQSPDSLAVSLGERATISCRASKSVRTSGYNYMHWYQQKPGQPPKLLIYLASNLKSGVPDRFSGSGSGTDFTLTISSLQAEDAATYYCQHSRELPYTFGQGTKLEIK
Consider B1, for which the binding result is on record as “binds”.
